In publication PMC7704619:
No constants are given. Whether binding was seen depends on the method and setting. In cells and extracts the contact can be indirect. Some binding calls cover weakened binding; strength is not graded here. Tags and fused reporters may be left off the sequences shown.

Target: T1, Flag-tagged STAT6 (signal transducer and activator of transcription 6) (UniProt P42226)
T1 sequence: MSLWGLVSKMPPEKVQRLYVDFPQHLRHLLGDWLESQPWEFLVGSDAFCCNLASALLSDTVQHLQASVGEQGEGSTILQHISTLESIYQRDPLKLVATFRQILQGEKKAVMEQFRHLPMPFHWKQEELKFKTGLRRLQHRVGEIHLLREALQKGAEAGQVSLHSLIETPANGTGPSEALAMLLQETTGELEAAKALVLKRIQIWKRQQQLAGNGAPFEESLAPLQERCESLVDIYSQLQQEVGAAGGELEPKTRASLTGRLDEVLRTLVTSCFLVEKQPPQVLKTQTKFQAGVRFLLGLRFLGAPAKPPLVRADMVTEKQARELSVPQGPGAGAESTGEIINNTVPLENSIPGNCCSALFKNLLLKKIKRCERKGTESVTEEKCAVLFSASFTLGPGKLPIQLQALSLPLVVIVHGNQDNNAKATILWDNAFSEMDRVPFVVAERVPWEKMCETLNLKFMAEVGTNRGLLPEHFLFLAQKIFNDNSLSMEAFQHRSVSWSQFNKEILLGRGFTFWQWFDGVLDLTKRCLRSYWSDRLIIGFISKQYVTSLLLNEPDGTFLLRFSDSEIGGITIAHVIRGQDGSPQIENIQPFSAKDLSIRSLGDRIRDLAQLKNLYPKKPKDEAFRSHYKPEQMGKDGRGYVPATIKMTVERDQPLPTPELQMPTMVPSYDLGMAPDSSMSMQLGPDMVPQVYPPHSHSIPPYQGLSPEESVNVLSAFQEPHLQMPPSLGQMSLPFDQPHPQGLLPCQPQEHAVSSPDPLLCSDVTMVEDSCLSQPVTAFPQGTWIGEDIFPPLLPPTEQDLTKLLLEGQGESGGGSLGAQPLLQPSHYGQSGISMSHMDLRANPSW
Experiment: co-IP; HK2 cells co-transfected with Flag-STAT6 and myc-P62 for 24 h in serum free medium; lysates immunoprecipitated separately with Flag-conjugated agarose beads or myc-conjugated magnetic beads; immunoblot with anti-Flag and anti-myc; with or without bixin treatment

Substance: myc-tagged P62 (SQSTM1) (from UniProt Q13501 1-440)
- binding: binds
